Here are results for 42 sequences from PMC7819943, “Rice protein-binding microarrays: a tool to detect cis-acting elements near promoter regions in rice”.

By UniProt entry, the sequences of proteins in these tests, tags left out.
UniProt Q0JBA9, entry or part of it: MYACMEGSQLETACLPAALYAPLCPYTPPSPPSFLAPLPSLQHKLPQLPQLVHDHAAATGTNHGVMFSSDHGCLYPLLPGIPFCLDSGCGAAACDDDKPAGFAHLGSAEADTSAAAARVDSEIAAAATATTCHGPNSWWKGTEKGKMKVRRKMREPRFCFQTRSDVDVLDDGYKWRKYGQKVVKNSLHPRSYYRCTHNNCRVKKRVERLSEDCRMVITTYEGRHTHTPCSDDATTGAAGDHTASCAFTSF

The list shows a part of the results.

In the experiment the target is OsWRKY34 (Oryza sativa, UniProt Q0JBA9 1-250). As to the kind of experiment: protein-binding microarray (RPBM); PBS, 2% BSA, 51.3 ng/ul salmon testes DNA, 50 uM zinc acetate, 200 nM TF, 25 C, 1 h; high values mean tight binding. The conditions noted are these: protein: recombinant; tags: N-terminal polyhistidine and DsRed monomer fusion (pET32a); label: CyDye5-dUTP incorporated in the synthesized complementary strand; 3' TTTTT single-stranded linker to array surface; dsDNA, one strand shown. In short, it runs like this:
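Transcription factors were made in E. coli BL21-CodonPlus as N-terminal fusions to a polyhistidine tag and DsRed, then purified on Ni–NTA. After primer extension with Cy5-dUTP and blocking with 2% BSA, a custom Agilent array was exposed for 1 h at 25 °C to 200 nM protein in PBS, 2% BSA, salmon testes DNA and 50 µM zinc acetate. Washed arrays were scanned on an Axon 4000B, and the binding signal is per-feature fluorescence intensity in arbitrary units.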
In the case of “ATATAAATTGTGCAATTATTTTTTTTCGTCCACATTTAATCGGAGTCACCTAGTGCAG”, the binding signal was 10000 fluorescence intensity (a.u.). In the case of “GACCGGACGCTTGAGACCGCTGACCTTTGACCCGCATGATCGGAGTCACCTAGTGCAG” it was 11400 fluorescence intensity (a.u.). In the case of “TTCTTCTCCTTTTTTTGCTTCGAATTTTCGGTGTCGATCTCGGAGTCACCTAGTGCAG” it was 8100 fluorescence intensity (a.u.); in that of “CTGGCATCGTCCTTCTTGTACCCCGACGACCAACTGCTCTCGGAGTCACCTAGTGCAG”, 10400 fluorescence intensity (a.u.); in that of “CGCTCATACTTTCTGTGTTCCACAACTCTGTGTTTGGTTTCGGAGTCACCTAGTGCAG”, 9240 fluorescence intensity (a.u.). On to “ATTGTTCATTTGTCGTTCCATTACATGTAACTTCACTTCACGGAGTCACCTAGTGCAG”, for which the binding signal is 17000 fluorescence intensity (a.u.). In the case of “TGAATCTCCTTGTTAAATAACTCTCTACTCTCGCCTGACACGGAGTCACCTAGTGCAG” it was 8050 fluorescence intensity (a.u.); in that of “ATGGACCACAGCCCCACCACCCCAGTTTTGCCACCTCCTTCGGAGTCACCTAGTGCAG”, 10200 fluorescence intensity (a.u.); in that of “TAATATTTAATTAATCTCACTATAATCGTGTGTTTCGTTTCGGAGTCACCTAGTGCAG”, 8570 fluorescence intensity (a.u.). For the sequence “CGCCCACACCGCGAACTGCAGCACCGGCGCCACCGCCCGCCGGAGTCACCTAGTGCAG”, the binding signal is 8180 fluorescence intensity (a.u.). Then “AGCCCATGTCTAGATTCATATCCAGAGCTTTTACTTCTTACGGAGTCACCTAGTGCAG”, with 11100 fluorescence intensity (a.u.); and “TGAATTAGCGATCATGTTCAGTAACTTGTCTATCTGTTTTCGGAGTCACCTAGTGCAG”, with 8030 fluorescence intensity (a.u.). Take “AATTTAATTGCGAGGGCGAGTACTTGTCTGTTTACCTTTTCGGAGTCACCTAGTGCAG”: the binding signal is 8450 fluorescence intensity (a.u.). Regarding “TAGGATTCGATCCCACGTCCCGGTTCTTTCGCGTCCATCCCGGAGTCACCTAGTGCAG”, the binding signal was 8520 fluorescence intensity (a.u.). In the case of “CACCCGCTTTTATACCCACACCCTCTCTCTCTCTCTCTCTCGGAGTCACCTAGTGCAG” it was 8810 fluorescence intensity (a.u.). For the sequence “GACCGTTCGCTATCCTCCTGCAACTTCACATTCTCTGCCACGGAGTCACCTAGTGCAG”, the binding signal is 12900 fluorescence intensity (a.u.). Then “TCCATTTTCACCTATCTCATATGTATTTATCTCTAATTTTCGGAGTCACCTAGTGCAG”, with 9830 fluorescence intensity (a.u.). Take “TCCTCCGGCTTATCTCCTCGCGAGCCACGAGGCGCCTACACGGAGTCACCTAGTGCAG”: the binding signal was 8300 fluorescence intensity (a.u.). Then “TTGCCTCTTTTTTTTTTTTGGCGCACCTCGATTAGTAGTACGGAGTCACCTAGTGCAG”, with 12400 fluorescence intensity (a.u.); and “TACGACTACCTGTGGCTCCGCATCTCGCCGTCTTCAACTCCGGAGTCACCTAGTGCAG”, with 10400 fluorescence intensity (a.u.). In the case of “CGCCATCACCCCAATCGCTGCTGCGCCGTCGCCACAGGTTCGGAGTCACCTAGTGCAG” it was 9250 fluorescence intensity (a.u.).

For “GCCATCAAGCTACGCCATTCAGCATTGCAACGACGACGTCCGGAGTCACCTAGTGCAG”, the binding signal was 64300 fluorescence intensity (a.u.).

Consider “TCTCTTCTAATCCGCTCTCAGTAGATTTACCCCGTACTTACGGAGTCACCTAGTGCAG”, for which the binding signal was 9130 fluorescence intensity (a.u.). On to “TCTTCTTCTTCATCCTGTTGTTTGCATCCTGTATGTCGCACGGAGTCACCTAGTGCAG”, for which the binding signal was 9720 fluorescence intensity (a.u.). “GTGCGAGCCCGTTCCGTTCCTTGTTCCTTGCGATGAGAGGCGGAGTCACCTAGTGCAG”: the binding signal is 8460 fluorescence intensity (a.u.).

Take “GAAGCTTTTTTATCCTTTTTTTAGTCGGACTTTTCTTTTACGGAGTCACCTAGTGCAG”: the binding signal was 9660 fluorescence intensity (a.u.). As for “AGGGTGGGTTACGTCGACAGACACTGGATAAGATCAATCCCGGAGTCACCTAGTGCAG”, the binding signal is 11900 fluorescence intensity (a.u.). Then “TTAGCCTAGCCCGACCGACCGGTAAACACGCGCCCCACCACGGAGTCACCTAGTGCAG”, with 8070 fluorescence intensity (a.u.); and “AACTACTACCTACCCATTCCGTTTCCTTCCGTCCTTGCCACGGAGTCACCTAGTGCAG”, with 9170 fluorescence intensity (a.u.); and “GTATTCCTCTCTCTCTCTCTCCTTTTCTTTTCTTCTTTTTCGGAGTCACCTAGTGCAG”, with 10000 fluorescence intensity (a.u.). “TCGGTGACAAAGGTGGTGGGATCTTGCTTCTCTTCCTGCACGGAGTCACCTAGTGCAG”: the binding signal is 8300 fluorescence intensity (a.u.). With “CCCTTTGACCTACCGCGGCGCCGCCCACCTGCGCCGGCATCGGAGTCACCTAGTGCAG”, the binding signal is 8300 fluorescence intensity (a.u.). Then “GCGGCAGGTTTCGGCGGCGGGGCGGGCGGCAGGTGTCGGCCGGAGTCACCTAGTGCAG”, with 20000 fluorescence intensity (a.u.). In the case of “TGCTCAACTTCTGGTCTTTTTTCTTATGGCTACTTCTATCCGGAGTCACCTAGTGCAG”, the binding signal was 11600 fluorescence intensity (a.u.). In the case of “GCAGTGGTCACGCCCAAATCATCTTCTCGCCTCTGCTTCTCGGAGTCACCTAGTGCAG” it was 8540 fluorescence intensity (a.u.). In the case of “ATAGGAATTTTTTGTTCTCCATGCACAGGATTCTTACAACCGGAGTCACCTAGTGCAG” it was 8200 fluorescence intensity (a.u.). With “ACCATTTGTTTTTTGATACCTTGTGTGCTTGCTCTGCAATCGGAGTCACCTAGTGCAG”, the binding signal was 13300 fluorescence intensity (a.u.). Consider “TTTTTGTCAAAAGTAGTACTCCATATATGTTTTTTTACTACGGAGTCACCTAGTGCAG”, for which the binding signal was 8900 fluorescence intensity (a.u.). Turning to “GTGTTTGGGGTTCTTGGAATTGATCATGGCAGGTGGCGAACGGAGTCACCTAGTGCAG”, the binding signal is 8730 fluorescence intensity (a.u.).

On to “CGCTGCCTAGATCTTTCCTCTCTCTCGCACCCTCTTATTGCGGAGTCACCTAGTGCAG”, for which the binding signal was 12000 fluorescence intensity (a.u.).

For “AGTGTTTTTCTTCCAGCATTACTACGTACTGTACCTTCTTCGGAGTCACCTAGTGCAG”, the binding signal was 8460 fluorescence intensity (a.u.). Then “AGCTATCCTGTTTCAATGTACTTCAGCTGACTTGAACAATCGGAGTCACCTAGTGCAG”, with 9900 fluorescence intensity (a.u.).
